Reference: PubChem BioAssay AID1508588 (Peter MacCallum Cancer Centre, 2020)

- Test: 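Knock-downs boosting vemurafenib effects on melanoma cell growth or lactate release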 (primary screen)
- System: human WM266.4 melanoma cells (BRAF V600 mutant)
- Reagents: siRNA pool against human genes, 40 nM
- Time to read-out: 96 h from transfection to read-out
- Challenge: vemurafenib 300 nM (about IC25), added 48 h after transfection, for 48 h; comparison arm got DMSO vehicle only
- Measured: 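Ratios to non-targeting siRNA for cell gain, counted as DAPI nuclei after minus before drug and averaged over two replicates, and for absorbance-read medium lactate per cell; both binned into fold-change classes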
- Scale: cell gain with vemurafenib: higher = more cell gain than with non-targeting siRNA; lactate per cell with vemurafenib: higher = more lactate made per cell
- Rule for the call: 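Enhancement is called by pairing each knock-down's vehicle-arm and drug-arm fold-change classes for viability or glycolysis; which class combinations qualify is not given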
- Calls: active = enhances vemurafenib effect; inactive = no enhancement seen
In all, the deposit lists about 18,000 reagents; below is a part drawn at random. 790 of all reagents (4.4%) were called active. 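Calls rest on a combination of fold-change classes in drug and vehicle arms, not all shown here.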 No sequences are given here.

With knock-down of CATSPER3 the results were cell gain with vemurafenib 0.57; lactate per cell with vemurafenib 0.95; inactive.
With knock-down of PIK3R1, the screen gave cell gain with vemurafenib 1.29; lactate per cell with vemurafenib 1.12; inactive.
For NDUFB2 the deposit lists cell gain with vemurafenib 0.77; lactate per cell with vemurafenib 1.5; inactive.
Silencing of CCNP came out at: cell gain with vemurafenib 0.88; lactate per cell with vemurafenib 0.82; inactive.
For KLHDC8B, the values are cell gain with vemurafenib 0.2; lactate per cell with vemurafenib 1.1; inactive.
After knock-down of NRK the results were cell gain with vemurafenib 1.08; lactate per cell with vemurafenib 0.94; inactive.
SH2D2A gave cell gain with vemurafenib 0.75; lactate per cell with vemurafenib 0.8; inactive.
Depletion of ANKS4B resulted in: cell gain with vemurafenib 0.85; lactate per cell with vemurafenib 0.58; inactive.
PACS1 scored cell gain with vemurafenib 0.58; lactate per cell with vemurafenib 1.43; inactive.
For SELENOV, the values are cell gain with vemurafenib 0.23; lactate per cell with vemurafenib 1; inactive.
After knock-down of OR52N1 the results were cell gain with vemurafenib 0.87; lactate per cell with vemurafenib 0.68; inactive.
Depletion of TAGAP gave: cell gain with vemurafenib -0.07; lactate per cell with vemurafenib 0.2; inactive.
For PRUNE1, the values are cell gain with vemurafenib 0.79; lactate per cell with vemurafenib 1; inactive.

Targets above whose target name starts with N or n:
NDUFB2 — cell gain with vemurafenib = 0.77; lactate per cell with vemurafenib = 1.5; activity call = inactive
NRK — cell gain with vemurafenib = 1.08; lactate per cell with vemurafenib = 0.94; activity call = inactive

The list goes on.
After knock-down of HMGCR the results were cell gain with vemurafenib 0.8; lactate per cell with vemurafenib 1.12; inactive.
Against SASS6 the deposit lists cell gain with vemurafenib 0.15; lactate per cell with vemurafenib 1.27; inactive.
OSGEP showed cell gain with vemurafenib 0.74; lactate per cell with vemurafenib 0.69; inactive.
Depletion of SPATA13 gave: cell gain with vemurafenib 1.07; lactate per cell with vemurafenib 0.9; inactive.
With knock-down of KCNIP2, the screen gave cell gain with vemurafenib 0.58; lactate per cell with vemurafenib 1.16; inactive.
Knock-down of SLC39A8 resulted in: cell gain with vemurafenib 0.28; lactate per cell with vemurafenib 0.4; active.
BTG1 gave cell gain with vemurafenib 0.41; lactate per cell with vemurafenib 1.5; inactive.
GALK1 showed cell gain with vemurafenib 0.45; lactate per cell with vemurafenib 2.25; inactive.
Silencing of PDE11A came out at: cell gain with vemurafenib 0.93; lactate per cell with vemurafenib 0.86; inactive.
After knock-down of SAFB2 the results were cell gain with vemurafenib 0.56; lactate per cell with vemurafenib 0.72; inactive.
Knock-down of FURIN resulted in: cell gain with vemurafenib 0.48; lactate per cell with vemurafenib 1.86; inactive.
With knock-down of CD302, the record shows cell gain with vemurafenib 0.41; lactate per cell with vemurafenib 0.26; active.
For LOXL3, the values are cell gain with vemurafenib 0.45; lactate per cell with vemurafenib 1.25; inactive.
GAS8-AS1 showed cell gain with vemurafenib 0.51; lactate per cell with vemurafenib 0.67; inactive.
PCBP2 showed cell gain with vemurafenib 0.4; lactate per cell with vemurafenib 1.15; inactive.
PCDHB2 gave cell gain with vemurafenib 0.82; lactate per cell with vemurafenib 0.55; inactive.
After knock-down of ATP23, the screen gave cell gain with vemurafenib 0.89; lactate per cell with vemurafenib 1.14; inactive.
For ZNF500, the values are cell gain with vemurafenib 1.08; lactate per cell with vemurafenib 0.34; inactive.
RAB5B gave cell gain with vemurafenib 0.81; lactate per cell with vemurafenib 0.71; inactive.
B4GALNT4 gave cell gain with vemurafenib 0.99; lactate per cell with vemurafenib 1.05; inactive.
Silencing of LMO3 resulted in: cell gain with vemurafenib 0.61; lactate per cell with vemurafenib 1.29; inactive.
PLEKHO2 gave cell gain with vemurafenib 0.51; lactate per cell with vemurafenib 1.03; inactive.
Silencing of ATMIN gave: cell gain with vemurafenib 0.25; lactate per cell with vemurafenib 1.41; inactive.
Against ELF3 the deposit lists cell gain with vemurafenib 0.51; lactate per cell with vemurafenib 0.44; inactive.
WDR76 scored cell gain with vemurafenib 0.95; lactate per cell with vemurafenib 1.01; inactive.
Against PCDHAC2, the values are cell gain with vemurafenib 0.46; lactate per cell with vemurafenib 1.75; inactive.
After knock-down of XKR9, the screen gave cell gain with vemurafenib 0.98; lactate per cell with vemurafenib 0.56; inactive.
